These are yes or no findings as the source states them, for the method shown. Binding seen in cells or lysates may run through a third protein. For part of these data: Binding calls can cover weak binding; strength is not graded here. Where a sequence is shown, tags or fusion partners need not be part of it. Each block holds one binder with its values, some of them ahead of it.
Columns and labels:
[1] = molecular target: NYFP (N-terminal fragment of YFP, alone); assay: split reporter; BiFC: NYFP and CYFP fusions co-transformed into maize protoplasts, YFP fluorescence by confocal microscopy 12 h after transfection
ZmPIMT1:NYFP (maize) = assay: as above
ZmPIMT1:NLUC (maize) = assay: split reporter; firefly luciferase complementation imaging (LCI): NLUC and CLUC fusions co-infiltrated by Agrobacterium into N. benthamiana leaves, examined after 48 h with a cooled CCD

- binding [1]: no binding
- binding (ZmPIMT1:NYFP (maize)): binds
B1: AtPABP2:CYFP (protein, UniProt P42731 1-629)
chain: MAQVQLQGQTPNGSTAAVTSAPATSGGATATQFGNTSLYVGDLDFNVTDSQLFDAFGQMGTVVTVRVCRDLVTRRSLGYGYVNFTNPQDAARAIQELNYIPLYGKPIRVMYSHRDPSVRRSGAGNIFIKNLDESIDHKALHDTFSSFGNIVSCKVAVDSSGQSKGYGFVQYANEESAQKAIEKLNGMLLNDKQVYVGPFLRRQERDSTANKTKFTNVYVKNLAESTTDDDLKNAFGEYGKITSAVVMKDGEGKSKGFGFVNFENADDAARAVESLNGHKFDDKEWYVGRAQKKSERETELRVRYEQNLKEAADKFQSSNLYVKNLDPSISDEKLKEIFSPFGTVTSSKVMRDPNGTSKGSGFVAFATPEEATEAMSQLSGKMIESKPLYVAIAQRKEDRRVRLQAQFSQVRPVAMQPSVGPRMPVYPPGGPGIGQQMFYGQAPPAMIPPQPGYGYQQQLVPGMRPGGGPVPSFFMPMVQPQQQRPGGGRRPGGIQHSQQQNPMMQQQMHPRGRMFRYPQGRGGSGDVPPYDMGNNMPLTIGALASNLSNATPEQQRTMLGEVLYPLVEQVEAESAAKVTGMLLEMDQTEVLHLLESPEALKAKVAEAMDVLRSVAAGGATEQLASLNLS

- binding (ZmPIMT1:NLUC (maize)): binds
B2: AtPABP2:CLUC (CLUC fusion of the Arabidopsis ortholog of ZmPABP2) (protein, UniProt P42731 1-629)
chain: B1 chain
